Laboratory results from the supplement of paper PMC6411743.
± gives the standard deviation of the averaged measurements. This is a selection; strong and weak results do not stand in their true shares.

By UniProt entry, the sequences of proteins in these tests, tags left out. Where a name states a change or a piece, a line headed by the entry shows the natural chain unless it says otherwise.
UniProt O43252: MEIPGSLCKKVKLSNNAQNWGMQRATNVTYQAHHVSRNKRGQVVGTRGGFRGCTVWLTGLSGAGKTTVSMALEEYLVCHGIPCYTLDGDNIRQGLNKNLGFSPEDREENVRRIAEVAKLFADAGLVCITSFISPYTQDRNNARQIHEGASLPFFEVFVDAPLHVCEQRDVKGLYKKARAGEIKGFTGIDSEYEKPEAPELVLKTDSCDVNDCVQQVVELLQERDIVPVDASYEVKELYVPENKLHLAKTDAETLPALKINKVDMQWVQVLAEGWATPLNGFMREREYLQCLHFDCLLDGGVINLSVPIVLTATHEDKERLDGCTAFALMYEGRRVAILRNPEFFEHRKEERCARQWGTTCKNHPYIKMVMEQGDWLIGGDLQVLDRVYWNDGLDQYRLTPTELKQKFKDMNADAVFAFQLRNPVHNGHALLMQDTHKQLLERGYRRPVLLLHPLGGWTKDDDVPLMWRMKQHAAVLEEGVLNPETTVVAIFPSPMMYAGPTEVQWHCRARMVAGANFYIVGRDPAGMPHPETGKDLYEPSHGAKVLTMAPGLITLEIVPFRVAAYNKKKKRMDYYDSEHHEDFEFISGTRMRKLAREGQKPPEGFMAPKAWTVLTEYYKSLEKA
UniProt O15382: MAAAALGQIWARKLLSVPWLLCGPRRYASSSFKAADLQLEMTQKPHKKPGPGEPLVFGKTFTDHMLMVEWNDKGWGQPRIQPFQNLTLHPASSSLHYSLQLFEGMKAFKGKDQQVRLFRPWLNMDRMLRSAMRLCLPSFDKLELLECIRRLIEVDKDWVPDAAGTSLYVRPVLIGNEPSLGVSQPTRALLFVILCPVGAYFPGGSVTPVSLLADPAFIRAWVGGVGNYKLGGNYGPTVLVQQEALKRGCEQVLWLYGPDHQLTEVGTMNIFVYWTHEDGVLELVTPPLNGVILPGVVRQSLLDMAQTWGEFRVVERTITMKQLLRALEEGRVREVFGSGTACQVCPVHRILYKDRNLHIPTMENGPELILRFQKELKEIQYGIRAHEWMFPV
UniProt O43149: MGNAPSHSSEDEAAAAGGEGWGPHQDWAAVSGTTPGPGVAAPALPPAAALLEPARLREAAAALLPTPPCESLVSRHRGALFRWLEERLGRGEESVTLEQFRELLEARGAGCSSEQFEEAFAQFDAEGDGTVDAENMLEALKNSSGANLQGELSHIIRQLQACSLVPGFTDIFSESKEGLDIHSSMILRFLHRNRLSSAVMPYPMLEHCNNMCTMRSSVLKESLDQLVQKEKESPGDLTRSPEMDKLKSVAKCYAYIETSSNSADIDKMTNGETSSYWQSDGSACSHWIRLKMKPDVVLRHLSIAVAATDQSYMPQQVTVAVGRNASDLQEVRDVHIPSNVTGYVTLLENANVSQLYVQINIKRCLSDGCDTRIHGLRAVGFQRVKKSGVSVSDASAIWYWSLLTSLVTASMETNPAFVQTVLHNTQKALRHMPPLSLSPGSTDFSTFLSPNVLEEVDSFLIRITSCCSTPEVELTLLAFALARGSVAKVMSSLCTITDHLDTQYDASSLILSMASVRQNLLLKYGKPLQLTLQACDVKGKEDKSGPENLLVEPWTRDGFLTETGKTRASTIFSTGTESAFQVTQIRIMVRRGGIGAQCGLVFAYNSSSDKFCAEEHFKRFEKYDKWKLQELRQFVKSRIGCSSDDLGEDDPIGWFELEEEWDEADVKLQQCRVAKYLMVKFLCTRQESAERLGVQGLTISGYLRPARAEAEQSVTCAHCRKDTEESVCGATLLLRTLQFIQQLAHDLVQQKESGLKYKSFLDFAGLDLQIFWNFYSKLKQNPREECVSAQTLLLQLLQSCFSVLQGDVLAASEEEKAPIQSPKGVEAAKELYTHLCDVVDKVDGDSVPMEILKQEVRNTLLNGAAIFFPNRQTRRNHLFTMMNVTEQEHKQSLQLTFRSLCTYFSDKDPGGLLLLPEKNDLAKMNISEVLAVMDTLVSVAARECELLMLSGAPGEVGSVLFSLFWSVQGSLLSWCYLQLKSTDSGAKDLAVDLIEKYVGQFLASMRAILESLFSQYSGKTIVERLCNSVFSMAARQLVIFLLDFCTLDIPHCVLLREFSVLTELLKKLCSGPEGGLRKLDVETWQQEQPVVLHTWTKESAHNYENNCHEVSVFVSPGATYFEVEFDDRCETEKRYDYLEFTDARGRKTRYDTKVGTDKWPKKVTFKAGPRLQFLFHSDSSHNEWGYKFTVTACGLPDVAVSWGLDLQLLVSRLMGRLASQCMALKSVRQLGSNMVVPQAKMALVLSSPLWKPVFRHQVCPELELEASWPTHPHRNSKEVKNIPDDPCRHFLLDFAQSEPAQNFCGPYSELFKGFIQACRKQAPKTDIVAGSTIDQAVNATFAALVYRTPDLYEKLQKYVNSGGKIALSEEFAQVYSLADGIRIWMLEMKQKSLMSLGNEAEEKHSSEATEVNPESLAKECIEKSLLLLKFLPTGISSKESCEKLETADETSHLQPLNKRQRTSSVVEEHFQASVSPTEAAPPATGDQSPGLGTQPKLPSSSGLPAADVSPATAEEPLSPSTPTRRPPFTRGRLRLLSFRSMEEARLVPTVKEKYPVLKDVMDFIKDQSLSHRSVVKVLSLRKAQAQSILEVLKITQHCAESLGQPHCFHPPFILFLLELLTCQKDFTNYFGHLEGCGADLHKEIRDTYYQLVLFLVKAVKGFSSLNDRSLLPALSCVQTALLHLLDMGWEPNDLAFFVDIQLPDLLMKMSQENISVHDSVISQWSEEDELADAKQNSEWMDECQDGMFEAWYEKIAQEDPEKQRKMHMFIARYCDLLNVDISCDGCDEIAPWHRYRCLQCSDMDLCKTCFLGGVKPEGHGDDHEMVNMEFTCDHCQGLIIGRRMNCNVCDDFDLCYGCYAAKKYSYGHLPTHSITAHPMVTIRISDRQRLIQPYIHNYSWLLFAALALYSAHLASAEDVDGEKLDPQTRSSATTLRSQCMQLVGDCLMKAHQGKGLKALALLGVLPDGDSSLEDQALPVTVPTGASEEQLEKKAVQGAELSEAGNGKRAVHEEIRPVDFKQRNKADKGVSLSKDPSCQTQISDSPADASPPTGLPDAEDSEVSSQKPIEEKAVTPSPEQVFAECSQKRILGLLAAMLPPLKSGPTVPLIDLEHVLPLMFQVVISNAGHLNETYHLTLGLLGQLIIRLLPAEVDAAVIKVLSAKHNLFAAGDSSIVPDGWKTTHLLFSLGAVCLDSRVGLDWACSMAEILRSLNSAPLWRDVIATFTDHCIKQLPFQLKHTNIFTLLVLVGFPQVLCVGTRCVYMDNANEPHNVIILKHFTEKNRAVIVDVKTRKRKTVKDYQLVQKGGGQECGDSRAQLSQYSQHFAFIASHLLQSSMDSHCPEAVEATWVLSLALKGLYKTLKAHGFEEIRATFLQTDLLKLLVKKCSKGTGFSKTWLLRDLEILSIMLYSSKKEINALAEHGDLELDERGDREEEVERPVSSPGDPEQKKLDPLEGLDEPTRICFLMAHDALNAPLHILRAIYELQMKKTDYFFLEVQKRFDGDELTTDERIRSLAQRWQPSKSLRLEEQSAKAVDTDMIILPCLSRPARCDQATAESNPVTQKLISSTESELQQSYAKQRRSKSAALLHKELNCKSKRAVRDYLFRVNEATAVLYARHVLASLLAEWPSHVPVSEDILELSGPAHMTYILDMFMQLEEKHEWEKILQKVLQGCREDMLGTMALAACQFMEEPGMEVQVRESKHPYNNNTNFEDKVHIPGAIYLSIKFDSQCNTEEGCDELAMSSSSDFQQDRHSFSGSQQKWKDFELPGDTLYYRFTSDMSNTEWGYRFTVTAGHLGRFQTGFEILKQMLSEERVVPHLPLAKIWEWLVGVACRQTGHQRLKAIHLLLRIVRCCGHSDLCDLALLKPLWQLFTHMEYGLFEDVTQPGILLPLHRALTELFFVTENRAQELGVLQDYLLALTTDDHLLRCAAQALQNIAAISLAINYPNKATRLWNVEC
UniProt O14907: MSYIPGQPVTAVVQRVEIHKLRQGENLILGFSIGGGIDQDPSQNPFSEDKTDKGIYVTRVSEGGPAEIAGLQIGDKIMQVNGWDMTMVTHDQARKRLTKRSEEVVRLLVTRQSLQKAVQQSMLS
UniProt O43143: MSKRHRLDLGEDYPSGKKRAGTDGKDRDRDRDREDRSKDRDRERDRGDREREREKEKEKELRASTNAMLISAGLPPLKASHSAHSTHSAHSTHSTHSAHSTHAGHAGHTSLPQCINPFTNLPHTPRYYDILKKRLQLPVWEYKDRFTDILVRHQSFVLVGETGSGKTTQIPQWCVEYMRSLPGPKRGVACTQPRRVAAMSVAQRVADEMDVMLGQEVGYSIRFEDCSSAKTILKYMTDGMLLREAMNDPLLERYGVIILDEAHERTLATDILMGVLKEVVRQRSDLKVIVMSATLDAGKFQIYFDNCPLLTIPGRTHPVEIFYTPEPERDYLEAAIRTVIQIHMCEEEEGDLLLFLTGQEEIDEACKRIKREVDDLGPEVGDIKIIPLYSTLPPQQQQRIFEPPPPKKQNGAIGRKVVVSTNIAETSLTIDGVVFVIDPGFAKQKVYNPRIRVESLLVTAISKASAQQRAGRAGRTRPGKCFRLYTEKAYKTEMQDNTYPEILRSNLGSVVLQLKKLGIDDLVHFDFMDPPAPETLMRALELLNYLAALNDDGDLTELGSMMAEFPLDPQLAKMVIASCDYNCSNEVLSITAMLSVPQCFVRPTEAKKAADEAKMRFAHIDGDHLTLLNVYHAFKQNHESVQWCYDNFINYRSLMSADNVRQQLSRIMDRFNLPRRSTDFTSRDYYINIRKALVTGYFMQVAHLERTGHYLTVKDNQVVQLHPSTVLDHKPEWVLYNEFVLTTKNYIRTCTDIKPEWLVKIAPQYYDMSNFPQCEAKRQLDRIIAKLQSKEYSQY
UniProt Q9H6Z4: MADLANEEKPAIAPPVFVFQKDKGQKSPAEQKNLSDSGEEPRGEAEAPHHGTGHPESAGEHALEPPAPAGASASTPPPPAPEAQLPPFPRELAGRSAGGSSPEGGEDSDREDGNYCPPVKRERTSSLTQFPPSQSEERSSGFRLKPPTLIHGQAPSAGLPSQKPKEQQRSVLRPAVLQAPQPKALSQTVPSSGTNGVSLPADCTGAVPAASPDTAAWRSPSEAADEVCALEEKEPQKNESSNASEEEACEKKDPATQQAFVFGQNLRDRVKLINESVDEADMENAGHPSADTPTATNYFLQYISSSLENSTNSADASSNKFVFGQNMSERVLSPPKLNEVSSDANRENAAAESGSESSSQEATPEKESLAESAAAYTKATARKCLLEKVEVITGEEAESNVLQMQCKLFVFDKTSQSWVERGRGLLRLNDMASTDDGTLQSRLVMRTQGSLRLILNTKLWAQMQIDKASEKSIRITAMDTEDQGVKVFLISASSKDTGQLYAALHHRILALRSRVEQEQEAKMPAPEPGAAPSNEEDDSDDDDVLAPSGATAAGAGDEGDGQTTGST
UniProt Q92888: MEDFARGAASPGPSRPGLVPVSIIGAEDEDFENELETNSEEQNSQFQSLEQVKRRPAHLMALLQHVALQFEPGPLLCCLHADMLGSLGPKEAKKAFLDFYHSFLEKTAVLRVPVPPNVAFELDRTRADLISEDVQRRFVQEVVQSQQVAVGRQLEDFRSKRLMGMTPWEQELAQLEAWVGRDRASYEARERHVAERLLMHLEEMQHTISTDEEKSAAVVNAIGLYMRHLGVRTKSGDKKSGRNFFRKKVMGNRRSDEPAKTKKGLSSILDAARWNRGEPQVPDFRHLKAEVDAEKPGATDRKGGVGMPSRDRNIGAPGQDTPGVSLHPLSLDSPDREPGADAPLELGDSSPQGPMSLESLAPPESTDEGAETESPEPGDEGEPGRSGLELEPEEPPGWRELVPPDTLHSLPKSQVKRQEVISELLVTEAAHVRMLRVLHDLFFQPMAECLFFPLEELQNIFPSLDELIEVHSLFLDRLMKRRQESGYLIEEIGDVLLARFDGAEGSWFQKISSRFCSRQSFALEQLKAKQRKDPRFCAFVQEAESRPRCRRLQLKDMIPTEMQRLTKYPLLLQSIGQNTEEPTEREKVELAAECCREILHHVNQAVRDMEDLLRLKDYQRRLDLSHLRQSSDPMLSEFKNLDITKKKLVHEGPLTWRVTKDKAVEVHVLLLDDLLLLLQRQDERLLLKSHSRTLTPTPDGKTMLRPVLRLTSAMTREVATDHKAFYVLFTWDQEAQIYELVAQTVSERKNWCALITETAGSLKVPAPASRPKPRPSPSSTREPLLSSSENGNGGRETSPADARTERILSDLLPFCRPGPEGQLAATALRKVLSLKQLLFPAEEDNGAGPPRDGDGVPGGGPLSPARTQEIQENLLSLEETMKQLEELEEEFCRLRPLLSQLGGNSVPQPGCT
UniProt O14925: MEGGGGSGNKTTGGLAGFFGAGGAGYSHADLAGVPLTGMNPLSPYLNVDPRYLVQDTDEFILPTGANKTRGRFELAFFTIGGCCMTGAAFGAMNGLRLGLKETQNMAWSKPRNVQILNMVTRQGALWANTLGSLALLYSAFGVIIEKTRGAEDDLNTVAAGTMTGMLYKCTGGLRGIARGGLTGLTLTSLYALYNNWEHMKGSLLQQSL

Compound: Nc1ncnc2c1ncn2[C@@H]1O[C@H](COP(=O)(O)OP(=O)(O)NP(=O)(O)O)[C@@H](O)[C@H]1O [adenylyl imidodiphosphate]
Experiment: NP40-soluble protein abundance relative to vehicle (solubility fold change) (ratio); higher = more soluble protein in presence of AMP-PNP
Conditions: concentration: 8mM
Outline: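 Crude Jurkat lysate, prepared by Dounce homogenisation, was exposed to eight concentrations from 0.1 to 10 mM for 10 min at room temperature and then 3 min at 37 °C. Solubilisation used 0.8% NP40 with benzonase for 60 min at 4 °C, followed by ultracentrifugation and TMT labelling of the supernatant for LC-MS/MS. After vsn normalisation of intensities, each value is the fold change against the detergent-processed vehicle within each replicate, across three independent experiments.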

Row | Target | NP40-soluble protein abundance
1 | GTPBP1 (UniProt O00178) | 1.09 ± 0.026
2 | PIK3C2A (UniProt O00443) | 1.06 ± 0.038
3 | UQCRQ (UniProt O14949) | 0.919 ± 0.028
4 | ARPC2 (UniProt O15144) | 0.994 ± 0.046
5 | XPO1 (UniProt O14980) | 0.908 ± 0.063
6 | PAPSS1 (UniProt O43252) | 0.9491 ± 0.0087
7 | RRP9 (UniProt O43818) | 1.16 ± 0.035
8 | CHMP2A (UniProt O43633) | 0.971 ± 0.031
9 | BCAT2 (UniProt O15382) | 0.969 ± 0.013
10 | M0QYS1 and related entries (UniProt P40429) | 0.832 ± 0.0099
11 | K7EPA3 and related entries (UniProt Q9NX61) | 0.941 ± 0.029
12 | K7ENL9 and related entries (UniProt Q96DM3) | 0.936 ± 0.016
13 | UniProt O14646 and related entries | 1.41 ± 0.11
14 | UniProt O15020 and related entries | 0.981 ± 0.029
15 | ZZEF1 (UniProt O43149) | 0.915 ± 0.075
16 | CDIPT (UniProt O14735) | 1.03 ± 0.073
17 | TAX1BP3 (UniProt O14907) | 1.02 ± 0.023
18 | HNRNPR (UniProt O43390) | 1.07 ± 0.11

Row | Target | NP40-soluble protein abundance
19 | M0R2B7 and related entries (UniProt P28340) | 0.913 ± 0.015
20 | DHX15 (UniProt O43143) | 1.17 ± 0.017
21 | UniProt O43156 | 0.9224 ± 0.0023
22 | K7ESQ0 and related entries (UniProt Q9H6Z4) | 0.997 ± 0.016
23 | CLIC1 (UniProt O00299) | 1.03 ± 0.15
24 | PLRG1 (UniProt O43660) | 1.17 ± 0.049
25 | M0QZR4 (UniProt Q92888) | 0.994 ± 0.0072
26 | UniProt O43829 | 1.02 ± 0.045
27 | PFAS (UniProt O15067) | 0.959 ± 0.029
28 | HTATSF1 (UniProt O43719) | 1.026 ± 0.0044
29 | O14925 and related entries (UniProt Q5SRD1+O14925) | 1.02 ± 0.035
30 | UniProt O43665 and related entries | 0.887 ± 0.04
31 | UniProt O15391 | 1.1 ± 0.066
32 | M0R208 and related entries (UniProt Q16740) | 0.973 ± 0.034
33 | UniProt O14639 and related entries | 1.06 ± 0.047
34 | PGRMC1 (UniProt O00264) | 0.967 ± 0.038
35 | SCO2 (UniProt O43819) | 0.936 ± 0.015

Same assay, conditions: concentration: 10mM

Row | Target | NP40-soluble protein abundance
36 | GTPBP1 (UniProt O00178) | 1.134 ± 0.01
37 | PIK3C2A (UniProt O00443) | 1.06 ± 0.059
38 | UQCRQ (UniProt O14949) | 0.897 ± 0.071
39 | ARPC2 (UniProt O15144) | 0.957 ± 0.048
40 | XPO1 (UniProt O14980) | 0.901 ± 0.051
41 | PAPSS1 (UniProt O43252) | 0.917 ± 0.033
42 | RRP9 (UniProt O43818) | 1.26 ± 0.043
43 | CHMP2A (UniProt O43633) | 0.915 ± 0.078
44 | BCAT2 (UniProt O15382) | 0.8996 ± 0.0065
45 | M0QYS1 and related entries (UniProt P40429) | 0.934 ± 0.11
46 | K7EPA3 and related entries (UniProt Q9NX61) | 0.922 ± 0.035
47 | K7ENL9 and related entries (UniProt Q96DM3) | 0.936 ± 0.042
48 | UniProt O14646 and related entries | 1.49 ± 0.15
49 | UniProt O15020 and related entries | 1.02 ± 0.012
50 | ZZEF1 (UniProt O43149) | 0.904 ± 0.11
51 | CDIPT (UniProt O14735) | 0.974 ± 0.039
52 | TAX1BP3 (UniProt O14907) | 1.04 ± 0.061
53 | HNRNPR (UniProt O43390) | 1.06 ± 0.14

Row | Target | NP40-soluble protein abundance
54 | M0R2B7 and related entries (UniProt P28340) | 0.862 ± 0.017
55 | DHX15 (UniProt O43143) | 1.17 ± 0.045
56 | UniProt O43156 | 0.909 ± 0.02
57 | K7ESQ0 and related entries (UniProt Q9H6Z4) | 1.02 ± 0.024
58 | CLIC1 (UniProt O00299) | 1.12 ± 0.14
59 | PLRG1 (UniProt O43660) | 1.21 ± 0.089
60 | M0QZR4 (UniProt Q92888) | 1.01 ± 0.012
61 | UniProt O43829 | 1.06 ± 0.05
62 | PFAS (UniProt O15067) | 0.944 ± 0.032
63 | HTATSF1 (UniProt O43719) | 1.068 ± 0.0061
64 | O14925 and related entries (UniProt Q5SRD1+O14925) | 1.02 ± 0.019
65 | UniProt O43665 and related entries | 0.836 ± 0.011
66 | UniProt O15391 | 1.08 ± 0.075
67 | M0R208 and related entries (UniProt Q16740) | 0.985 ± 0.017
68 | UniProt O14639 and related entries | 1.07 ± 0.095
69 | PGRMC1 (UniProt O00264) | 0.943 ± 0.063
70 | SCO2 (UniProt O43819) | 0.934 ± 0.045
